# The list shows a part of the results.
# Protein sequences, listed by entry. Tags and fused reporters are not part of them. Lines headed by an entry give the natural chain unless they say otherwise; changes in a name come on top.
# UniProt Q9UL63, whole entry, looked up: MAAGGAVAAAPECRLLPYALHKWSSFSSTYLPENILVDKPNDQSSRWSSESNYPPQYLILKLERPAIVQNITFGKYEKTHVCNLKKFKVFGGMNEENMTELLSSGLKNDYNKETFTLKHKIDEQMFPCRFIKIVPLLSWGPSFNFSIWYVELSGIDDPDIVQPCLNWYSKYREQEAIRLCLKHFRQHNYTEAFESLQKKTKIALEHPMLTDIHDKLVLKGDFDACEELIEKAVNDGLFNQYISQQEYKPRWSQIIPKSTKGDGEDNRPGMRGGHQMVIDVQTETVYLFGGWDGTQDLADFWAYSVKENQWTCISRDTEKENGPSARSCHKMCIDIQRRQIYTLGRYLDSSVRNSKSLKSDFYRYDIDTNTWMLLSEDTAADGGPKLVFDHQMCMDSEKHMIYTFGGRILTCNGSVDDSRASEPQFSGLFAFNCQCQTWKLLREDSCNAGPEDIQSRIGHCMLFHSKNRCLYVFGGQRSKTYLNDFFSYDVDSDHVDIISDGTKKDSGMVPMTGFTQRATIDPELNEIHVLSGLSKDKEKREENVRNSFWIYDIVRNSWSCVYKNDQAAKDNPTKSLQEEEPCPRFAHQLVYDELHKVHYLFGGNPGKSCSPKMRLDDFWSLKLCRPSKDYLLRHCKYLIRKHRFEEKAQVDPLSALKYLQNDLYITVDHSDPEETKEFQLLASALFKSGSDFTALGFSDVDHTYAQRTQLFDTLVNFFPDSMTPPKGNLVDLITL
# UniProt Q9NQG6: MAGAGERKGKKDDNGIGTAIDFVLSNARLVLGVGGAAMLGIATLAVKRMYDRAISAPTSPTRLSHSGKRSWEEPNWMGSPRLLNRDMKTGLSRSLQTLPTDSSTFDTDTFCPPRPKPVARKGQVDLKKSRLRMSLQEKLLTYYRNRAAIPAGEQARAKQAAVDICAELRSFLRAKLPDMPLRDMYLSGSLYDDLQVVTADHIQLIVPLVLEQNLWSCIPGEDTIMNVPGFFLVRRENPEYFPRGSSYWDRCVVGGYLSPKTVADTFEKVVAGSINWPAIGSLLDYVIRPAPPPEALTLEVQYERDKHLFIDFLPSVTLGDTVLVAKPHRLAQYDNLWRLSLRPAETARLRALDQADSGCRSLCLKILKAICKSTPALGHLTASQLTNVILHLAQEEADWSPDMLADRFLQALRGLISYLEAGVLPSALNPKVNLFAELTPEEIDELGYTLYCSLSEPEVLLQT
# UniProt Q9UNW1: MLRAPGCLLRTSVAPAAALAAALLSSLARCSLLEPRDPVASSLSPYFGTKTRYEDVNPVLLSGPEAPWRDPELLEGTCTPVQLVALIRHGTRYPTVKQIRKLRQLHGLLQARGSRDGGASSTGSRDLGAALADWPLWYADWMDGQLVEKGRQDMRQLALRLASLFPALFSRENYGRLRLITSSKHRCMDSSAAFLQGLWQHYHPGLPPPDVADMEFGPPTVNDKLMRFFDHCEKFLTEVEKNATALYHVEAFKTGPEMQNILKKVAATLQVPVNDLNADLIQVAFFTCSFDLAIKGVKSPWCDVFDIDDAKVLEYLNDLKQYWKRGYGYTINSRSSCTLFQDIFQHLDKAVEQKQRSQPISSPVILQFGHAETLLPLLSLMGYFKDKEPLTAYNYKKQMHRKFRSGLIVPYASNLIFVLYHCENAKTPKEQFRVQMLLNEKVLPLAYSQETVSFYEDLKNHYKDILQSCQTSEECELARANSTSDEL
# UniProt P46013: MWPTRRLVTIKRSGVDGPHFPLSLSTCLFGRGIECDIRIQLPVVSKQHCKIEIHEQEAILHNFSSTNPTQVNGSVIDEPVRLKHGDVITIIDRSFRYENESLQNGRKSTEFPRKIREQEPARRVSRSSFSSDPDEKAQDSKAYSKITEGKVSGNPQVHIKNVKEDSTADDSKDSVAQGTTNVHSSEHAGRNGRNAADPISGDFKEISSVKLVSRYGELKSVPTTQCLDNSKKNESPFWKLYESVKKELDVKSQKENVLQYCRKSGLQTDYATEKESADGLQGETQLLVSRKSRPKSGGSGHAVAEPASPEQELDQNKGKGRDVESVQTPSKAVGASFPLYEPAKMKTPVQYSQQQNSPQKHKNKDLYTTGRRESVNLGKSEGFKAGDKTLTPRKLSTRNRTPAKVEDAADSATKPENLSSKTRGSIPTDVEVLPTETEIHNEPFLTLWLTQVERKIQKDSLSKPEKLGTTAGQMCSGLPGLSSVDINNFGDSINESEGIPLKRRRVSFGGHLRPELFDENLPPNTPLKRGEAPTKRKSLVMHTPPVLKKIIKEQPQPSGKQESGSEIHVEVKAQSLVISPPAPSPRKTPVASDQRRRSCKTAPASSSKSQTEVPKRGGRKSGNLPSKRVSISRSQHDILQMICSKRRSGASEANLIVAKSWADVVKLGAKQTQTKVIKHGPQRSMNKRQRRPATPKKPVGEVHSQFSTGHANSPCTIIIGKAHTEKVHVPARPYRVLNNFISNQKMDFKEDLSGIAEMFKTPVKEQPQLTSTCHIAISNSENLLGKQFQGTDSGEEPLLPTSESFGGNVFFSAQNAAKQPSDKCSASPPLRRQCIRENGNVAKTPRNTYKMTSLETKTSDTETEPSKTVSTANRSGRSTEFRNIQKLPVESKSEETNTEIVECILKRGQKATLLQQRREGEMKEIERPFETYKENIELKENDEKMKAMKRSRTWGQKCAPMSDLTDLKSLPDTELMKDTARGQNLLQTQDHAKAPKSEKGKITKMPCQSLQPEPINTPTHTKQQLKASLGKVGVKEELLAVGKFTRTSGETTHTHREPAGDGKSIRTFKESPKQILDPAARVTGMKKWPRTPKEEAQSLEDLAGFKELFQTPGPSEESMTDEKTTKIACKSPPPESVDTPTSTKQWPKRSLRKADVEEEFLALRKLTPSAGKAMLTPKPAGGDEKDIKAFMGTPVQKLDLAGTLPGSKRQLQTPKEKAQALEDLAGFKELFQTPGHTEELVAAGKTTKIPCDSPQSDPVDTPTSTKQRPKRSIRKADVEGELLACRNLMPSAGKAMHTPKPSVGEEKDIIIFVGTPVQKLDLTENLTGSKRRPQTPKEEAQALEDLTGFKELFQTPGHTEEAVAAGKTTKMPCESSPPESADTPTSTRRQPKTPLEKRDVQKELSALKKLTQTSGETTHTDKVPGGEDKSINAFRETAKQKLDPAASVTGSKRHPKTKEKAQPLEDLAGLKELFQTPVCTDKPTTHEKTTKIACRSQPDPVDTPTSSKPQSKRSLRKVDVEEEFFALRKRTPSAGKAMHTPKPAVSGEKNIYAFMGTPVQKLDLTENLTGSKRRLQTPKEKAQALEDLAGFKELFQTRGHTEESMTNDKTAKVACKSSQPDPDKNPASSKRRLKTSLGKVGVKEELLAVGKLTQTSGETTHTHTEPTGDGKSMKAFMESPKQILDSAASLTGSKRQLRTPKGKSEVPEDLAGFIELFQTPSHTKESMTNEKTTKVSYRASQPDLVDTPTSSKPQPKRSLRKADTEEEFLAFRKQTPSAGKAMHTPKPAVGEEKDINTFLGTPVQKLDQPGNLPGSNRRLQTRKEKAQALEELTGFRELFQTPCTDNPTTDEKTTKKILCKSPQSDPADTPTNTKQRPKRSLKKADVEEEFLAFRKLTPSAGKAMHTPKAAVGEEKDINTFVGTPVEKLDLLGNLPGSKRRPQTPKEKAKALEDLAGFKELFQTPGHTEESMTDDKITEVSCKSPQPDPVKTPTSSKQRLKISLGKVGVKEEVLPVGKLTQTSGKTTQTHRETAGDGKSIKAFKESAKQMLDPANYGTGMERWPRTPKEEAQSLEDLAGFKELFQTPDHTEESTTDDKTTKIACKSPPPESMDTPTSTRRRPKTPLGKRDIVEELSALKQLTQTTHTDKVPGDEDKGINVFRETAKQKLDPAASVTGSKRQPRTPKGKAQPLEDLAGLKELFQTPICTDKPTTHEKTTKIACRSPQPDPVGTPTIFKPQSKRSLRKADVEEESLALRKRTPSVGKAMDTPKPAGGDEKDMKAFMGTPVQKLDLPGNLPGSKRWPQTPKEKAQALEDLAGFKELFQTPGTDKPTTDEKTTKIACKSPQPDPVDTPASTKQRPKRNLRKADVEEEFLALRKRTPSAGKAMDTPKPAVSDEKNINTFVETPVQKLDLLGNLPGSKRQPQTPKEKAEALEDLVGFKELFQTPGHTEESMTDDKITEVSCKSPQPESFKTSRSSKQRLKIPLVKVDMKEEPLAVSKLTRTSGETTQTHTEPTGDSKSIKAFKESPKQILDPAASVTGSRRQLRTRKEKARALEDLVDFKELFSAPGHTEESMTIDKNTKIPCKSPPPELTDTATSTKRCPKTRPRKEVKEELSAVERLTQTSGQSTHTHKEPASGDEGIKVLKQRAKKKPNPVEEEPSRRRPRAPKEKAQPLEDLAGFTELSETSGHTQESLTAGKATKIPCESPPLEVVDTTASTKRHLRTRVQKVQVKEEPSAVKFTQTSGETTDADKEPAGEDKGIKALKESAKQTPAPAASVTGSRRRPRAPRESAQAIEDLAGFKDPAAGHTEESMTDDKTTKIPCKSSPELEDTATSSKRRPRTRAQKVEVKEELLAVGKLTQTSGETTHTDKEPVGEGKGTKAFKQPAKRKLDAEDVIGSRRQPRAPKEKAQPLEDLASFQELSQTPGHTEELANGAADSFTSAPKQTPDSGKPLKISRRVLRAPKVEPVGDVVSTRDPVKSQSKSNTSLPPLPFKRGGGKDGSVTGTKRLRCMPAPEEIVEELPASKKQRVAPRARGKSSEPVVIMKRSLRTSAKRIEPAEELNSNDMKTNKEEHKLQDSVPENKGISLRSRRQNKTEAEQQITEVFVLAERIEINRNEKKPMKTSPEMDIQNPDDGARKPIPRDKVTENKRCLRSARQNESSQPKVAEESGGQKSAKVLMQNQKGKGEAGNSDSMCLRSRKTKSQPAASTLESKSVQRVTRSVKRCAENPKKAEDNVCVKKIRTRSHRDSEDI
# UniProt Q8NB16: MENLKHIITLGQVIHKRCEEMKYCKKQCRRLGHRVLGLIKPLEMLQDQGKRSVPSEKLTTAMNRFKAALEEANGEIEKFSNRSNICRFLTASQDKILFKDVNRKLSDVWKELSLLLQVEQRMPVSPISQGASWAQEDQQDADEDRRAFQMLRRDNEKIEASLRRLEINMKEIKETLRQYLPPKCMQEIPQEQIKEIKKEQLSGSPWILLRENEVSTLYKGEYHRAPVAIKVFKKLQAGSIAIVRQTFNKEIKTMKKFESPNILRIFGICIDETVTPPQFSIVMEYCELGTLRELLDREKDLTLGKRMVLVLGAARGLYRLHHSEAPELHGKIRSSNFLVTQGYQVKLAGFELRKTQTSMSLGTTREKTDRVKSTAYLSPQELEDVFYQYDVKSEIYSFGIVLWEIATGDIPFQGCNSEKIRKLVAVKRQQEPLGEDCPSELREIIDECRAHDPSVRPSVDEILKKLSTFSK
# UniProt Q9NXB0: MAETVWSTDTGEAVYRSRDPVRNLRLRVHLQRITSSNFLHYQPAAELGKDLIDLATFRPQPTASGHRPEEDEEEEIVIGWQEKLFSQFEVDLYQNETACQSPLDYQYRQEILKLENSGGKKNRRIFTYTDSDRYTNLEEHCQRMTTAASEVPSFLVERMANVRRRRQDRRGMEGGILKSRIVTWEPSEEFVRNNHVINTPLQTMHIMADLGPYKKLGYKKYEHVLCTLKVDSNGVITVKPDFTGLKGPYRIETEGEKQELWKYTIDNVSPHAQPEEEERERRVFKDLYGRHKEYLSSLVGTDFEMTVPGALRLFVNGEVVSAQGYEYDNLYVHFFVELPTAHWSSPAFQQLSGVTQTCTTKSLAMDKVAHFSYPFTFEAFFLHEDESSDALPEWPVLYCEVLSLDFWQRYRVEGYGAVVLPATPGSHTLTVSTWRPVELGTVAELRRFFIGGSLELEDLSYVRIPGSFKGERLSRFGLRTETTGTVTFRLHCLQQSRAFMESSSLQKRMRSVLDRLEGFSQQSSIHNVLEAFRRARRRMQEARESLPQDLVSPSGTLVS
# UniProt Q9BUB5: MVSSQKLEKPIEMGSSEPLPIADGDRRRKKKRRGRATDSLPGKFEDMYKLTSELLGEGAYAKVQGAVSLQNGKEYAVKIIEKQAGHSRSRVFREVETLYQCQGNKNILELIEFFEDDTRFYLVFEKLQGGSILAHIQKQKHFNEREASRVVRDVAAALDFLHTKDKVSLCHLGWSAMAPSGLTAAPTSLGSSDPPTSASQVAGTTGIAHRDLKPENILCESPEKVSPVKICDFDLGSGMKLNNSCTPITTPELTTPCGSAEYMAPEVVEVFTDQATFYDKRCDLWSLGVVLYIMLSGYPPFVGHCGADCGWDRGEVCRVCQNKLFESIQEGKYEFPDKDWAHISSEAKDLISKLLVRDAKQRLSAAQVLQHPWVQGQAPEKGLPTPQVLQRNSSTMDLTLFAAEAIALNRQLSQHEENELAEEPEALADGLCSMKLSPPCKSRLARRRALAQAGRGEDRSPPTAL
# Compound: Cc1cc(ccc1-c1ccccc1)C(=O)N1CCCN(CC1)C(=O)CCl [compound 10]
# Assay: probe-labelled cysteine peptide fold change vs DMSO (competition) (log2 fold change); higher = less target engagement (more negative = stronger competition)
# Details: THP-1, incubation time: 4 h
# 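Also: competitive profiling in live THP-1 cells: cysteine peptides tagged with an iodoacetamide desthiobiotin (IA-DTB) probe, intensity after compound treatment relative to DMSO-treated cells.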
Target,probe-labelled cysteine peptide fold change (10 µM),probe-labelled cysteine peptide fold change (50 µM)
MKLN1_Q9UL63_582_SLQEEEPCPR (UniProt Q9UL63),-0.0292,-0.192
MIEF1_Q9NQG6_111_SLQTLPTDSSTFDTDTFCPPRPK (UniProt Q9NQG6),-0.267,-0.0189
MOB4_Q9Y3A3_188_QIFDEYENETFLCHR (UniProt Q9Y3A3),0.126,0.217
MKLN1_Q9UL63_469_CLYVFGGQR (UniProt Q9UL63),0.0117,0.0962
MINPP1_Q9UNW1_337_SSCTLFQDIFQHLDK (UniProt Q9UNW1),-0.000835,0.123
MKI67_P46013_2706_IPCESPPLEVVDTTASTK (UniProt P46013),-0.304,-0.189
MLKL_Q8NB16_437_QQEPLGEDCPSELR (UniProt Q8NB16),-0.194,0.11
MKI67_P46013_643_SQHDILQMICSK (UniProt P46013),-0.612,-2.28
MKS1_Q9NXB0_226_KYEHVLCTLK (UniProt Q9NXB0),-0.112,0.305
MRPL58_Q14197_82_LTISYCR (UniProt Q14197),0.00862,-0.355
MRC2_Q9UBG0_532_GWTWHSPSCYWLGEDQVTYSEAR (UniProt Q9UBG0),-0.0596,-0.127
MRPL50_Q8N5N7_52_KEPILVCPPLR (UniProt Q8N5N7),-0.313,0.0831
MKNK1_Q9BUB5_219_DLKPENILCESPEK (UniProt Q9BUB5),-0.226,-0.477
MKNK2_Q9HBH9_136_EVEMLYQCQGHR (UniProt Q9HBH9),0.326,0.731
MMTAG2_Q9BU76_179_AEDQTESSCESHR (UniProt Q9BU76),0.0154,-0.0762

# — the supplement of paper PMC12067093, “Discovery and optimisation of a covalent ligand for TRIM25 and its application to targeted protein ubiquitination” (Chemical Science, 2025)
